Taken from: PubChem BioAssay AID602196 (INSERM, 2012)
Purpose: 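Genes whose knock-down alters cisplatin killing of lung cancer cells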. Cell system: human A549 lung cancer cells. Knock-down reagent: siRNA pair against human genes. Timing: 48 h transfection before cisplatin; time from cisplatin to read-out not stated. Treatment: cisplatin at a dose killing half of control-siRNA cells; exact dose and duration not given. Detection: 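Shift in cisplatin death relative to control siRNA, from -50 (all cells die) to +50 (no cells die); siRNAs harmful on their own scored 0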. Scale: two-siRNA summed score (-2 to +2): higher = both siRNAs protect from cisplatin killing; -2 means both sensitise; mean protection from cisplatin (shift in death): higher = protection from cisplatin killing. Call rule: 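Each siRNA scores 0 if harmful alone by LDH or WST-1, otherwise +1 if it reduces and -1 if it increases cisplatin killing; a gene is active when both siRNAs agree (sum +2 or -2)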. Calls: active = both siRNAs shift cisplatin killing the same way; inactive = no consistent shift, or siRNA harmful alone.
Here is an unselected part of about 23,000 reagents tested. 455 of all reagents (2%) count as active. 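Active includes both protection and sensitisation; some change values fall well beyond the stated -50 to +50 range.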 Further read-outs or replicates are left out here. No sequences are given here. The record does not give: the amount of reagent.

What is on record for PIGQ (GeneID 9091)?
two-siRNA summed score (-2 to +2): 0; mean protection from cisplatin (shift in death) (%): 0.1; call: inactive

What is on record for TMEM106C (GeneID 79022)?
two-siRNA summed score (-2 to +2): -1; mean protection from cisplatin (shift in death) (%): -15.1; call: inactive

With RGL1 (GeneID 23179), what does the deposit list?
two-siRNA summed score (-2 to +2): 0; mean protection from cisplatin (shift in death) (%): 2.9; call: inactive

What did the screen give for AMFR (GeneID 267)?
two-siRNA summed score (-2 to +2): 0; mean protection from cisplatin (shift in death) (%): -0.3; call: inactive

With SLC17A4 (GeneID 10050), what does the deposit list?
two-siRNA summed score (-2 to +2): 0; mean protection from cisplatin (shift in death) (%): 11; call: inactive

For R3HCC1L (GeneID 27291), what does the deposit list?
two-siRNA summed score (-2 to +2): 0; mean protection from cisplatin (shift in death) (%): 0.5; call: inactive

For TSSK4 (GeneID 283629), how do the results read?
two-siRNA summed score (-2 to +2): 1; mean protection from cisplatin (shift in death) (%): 12.4; call: inactive

With ERBB3 (GeneID 2065), what was measured?
two-siRNA summed score (-2 to +2): 0; mean protection from cisplatin (shift in death) (%): 17.7; call: inactive

What is on record for HHCM (GeneID 10639)?
two-siRNA summed score (-2 to +2): 1; mean protection from cisplatin (shift in death) (%): 16.4; call: inactive

For ABHD17A (GeneID 81926), what does the deposit list?
two-siRNA summed score (-2 to +2): 0; mean protection from cisplatin (shift in death) (%): 0.7; call: inactive

What is on record for PRKAA2 (GeneID 5563)?
two-siRNA summed score (-2 to +2): 1; mean protection from cisplatin (shift in death) (%): 10.1; call: inactive

For MRPS33 (GeneID 51650), how do the results read?
two-siRNA summed score (-2 to +2): 1; mean protection from cisplatin (shift in death) (%): 5.7; call: inactive

For LRRN3 (GeneID 54674), what was measured?
two-siRNA summed score (-2 to +2): 0; mean protection from cisplatin (shift in death) (%): -0.7; call: inactive

Already shown: entries from further up.
ERBB3 (GeneID 2065) → two-siRNA summed score (-2 to +2) = 0; mean protection from cisplatin (shift in death) (%) = 17.7; call = inactive
HHCM (GeneID 10639) → two-siRNA summed score (-2 to +2) = 1; mean protection from cisplatin (shift in death) (%) = 16.4; call = inactive
ABHD17A (GeneID 81926) → two-siRNA summed score (-2 to +2) = 0; mean protection from cisplatin (shift in death) (%) = 0.7; call = inactive
PRKAA2 (GeneID 5563) → two-siRNA summed score (-2 to +2) = 1; mean protection from cisplatin (shift in death) (%) = 10.1; call = inactive
MRPS33 (GeneID 51650) → two-siRNA summed score (-2 to +2) = 1; mean protection from cisplatin (shift in death) (%) = 5.7; call = inactive

Next reagents:
What did the screen give for ASB1 (GeneID 51665)?
two-siRNA summed score (-2 to +2): 0; mean protection from cisplatin (shift in death) (%): -9.5; call: inactive

For AGT (GeneID 183), how do the results read?
two-siRNA summed score (-2 to +2): -1; mean protection from cisplatin (shift in death) (%): -12.9; call: inactive

What is on record for NFIB (GeneID 4781)?
two-siRNA summed score (-2 to +2): 0; mean protection from cisplatin (shift in death) (%): 10.8; call: inactive

How did the screen score SLC71A2 (GeneID 84641)?
two-siRNA summed score (-2 to +2): 1; mean protection from cisplatin (shift in death) (%): 6.9; call: inactive

What did the screen give for UCN2 (GeneID 90226)?
two-siRNA summed score (-2 to +2): 1; mean protection from cisplatin (shift in death) (%): 16.2; call: inactive

Which result is listed for LOC389362?
two-siRNA summed score (-2 to +2): 1; mean protection from cisplatin (shift in death) (%): 9.2; call: inactive

For SERTAD2 (GeneID 9792), what was measured?
two-siRNA summed score (-2 to +2): 1; mean protection from cisplatin (shift in death) (%): 9.7; call: inactive

What is on record for SP1 (GeneID 6667)?
two-siRNA summed score (-2 to +2): 0; mean protection from cisplatin (shift in death) (%): 2.4; call: inactive

With RBL2 (GeneID 5934), how do the results read?
two-siRNA summed score (-2 to +2): 0; mean protection from cisplatin (shift in death) (%): 8.6; call: inactive

With OSBPL8 (GeneID 114882), what does the deposit list?
two-siRNA summed score (-2 to +2): 1; mean protection from cisplatin (shift in death) (%): 13.1; call: inactive

How did the screen score LOC402142?
two-siRNA summed score (-2 to +2): 1; mean protection from cisplatin (shift in death) (%): 12.7; call: inactive

What is on record for CBL (GeneID 867)?
two-siRNA summed score (-2 to +2): 0; mean protection from cisplatin (shift in death) (%): 18.4; call: inactive

With PF4 (GeneID 5196), what does the deposit list?
two-siRNA summed score (-2 to +2): -1; mean protection from cisplatin (shift in death) (%): -8.1; call: inactive

For LOC401308, how do the results read?
two-siRNA summed score (-2 to +2): 0; mean protection from cisplatin (shift in death) (%): 3.2; call: inactive

With PYROXD1 (GeneID 79912), what was measured?
two-siRNA summed score (-2 to +2): 0; mean protection from cisplatin (shift in death) (%): 4.1; call: inactive

Which result is listed for STX6 (GeneID 10228)?
two-siRNA summed score (-2 to +2): 0; mean protection from cisplatin (shift in death) (%): -7; call: inactive

What did the screen give for LOC253264?
two-siRNA summed score (-2 to +2): 1; mean protection from cisplatin (shift in death) (%): 15.2; call: inactive

With ELL3 (GeneID 80237), what does the deposit list?
two-siRNA summed score (-2 to +2): 0; mean protection from cisplatin (shift in death) (%): 10.5; call: inactive

With LOC441100, what does the deposit list?
two-siRNA summed score (-2 to +2): 1; mean protection from cisplatin (shift in death) (%): 12.8; call: inactive

Which result is listed for LRRC8B (GeneID 23507)?
two-siRNA summed score (-2 to +2): 1; mean protection from cisplatin (shift in death) (%): 22.8; call: inactive

Which result is listed for VWC2 (GeneID 375567)?
two-siRNA summed score (-2 to +2): 0; mean protection from cisplatin (shift in death) (%): 7.9; call: inactive

For MYO9A (GeneID 4649), what was measured?
two-siRNA summed score (-2 to +2): 0; mean protection from cisplatin (shift in death) (%): -3.6; call: inactive

Which result is listed for BTNL3 (GeneID 10917)?
two-siRNA summed score (-2 to +2): 0; mean protection from cisplatin (shift in death) (%): -1.9; call: inactive

With ACOX3 (GeneID 8310), what was measured?
two-siRNA summed score (-2 to +2): -1; mean protection from cisplatin (shift in death) (%): -15.8; call: inactive

For SNX31 (GeneID 169166), what does the deposit list?
two-siRNA summed score (-2 to +2): 0; mean protection from cisplatin (shift in death) (%): 6.1; call: inactive

For NBPF5P (GeneID 100507044), what does the deposit list?
two-siRNA summed score (-2 to +2): 0; mean protection from cisplatin (shift in death) (%): 15.3; call: inactive

Which result is listed for SLC22A7 (GeneID 10864)?
two-siRNA summed score (-2 to +2): -1; mean protection from cisplatin (shift in death) (%): -13.9; call: inactive
